In test [1] the target is T1, OsSnRK1a (yeast two-hybrid fusion) (rice (Oryza sativa)) (UniProt Q852Q2).
T1 sequence: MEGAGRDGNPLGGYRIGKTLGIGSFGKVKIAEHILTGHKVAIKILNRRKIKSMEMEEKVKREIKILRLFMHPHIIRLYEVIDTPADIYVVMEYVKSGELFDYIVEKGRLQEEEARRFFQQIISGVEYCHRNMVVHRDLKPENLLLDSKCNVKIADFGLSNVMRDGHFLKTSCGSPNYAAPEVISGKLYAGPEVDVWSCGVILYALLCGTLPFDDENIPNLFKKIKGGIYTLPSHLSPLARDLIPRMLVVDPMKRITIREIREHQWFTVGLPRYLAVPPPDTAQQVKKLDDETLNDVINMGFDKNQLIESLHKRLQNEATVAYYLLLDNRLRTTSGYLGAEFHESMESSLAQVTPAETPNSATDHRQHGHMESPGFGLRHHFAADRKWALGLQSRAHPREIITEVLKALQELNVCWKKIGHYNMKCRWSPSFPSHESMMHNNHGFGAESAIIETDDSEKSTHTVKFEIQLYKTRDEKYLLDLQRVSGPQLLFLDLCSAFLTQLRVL
Description: two-hybrid; pGADT7 and pGBKT7 constructs co-transformed into yeast AH109; growth on SD-Trp-Leu-His-Ade at 30 °C for 3 days; empty AD or BD vectors as negative controls.

In test [2] the target is T2, OsSnRK1a–GFP (rice (Oryza sativa)) (UniProt Q852Q2).
T2 sequence: T1 sequence
Description: co-IP; OsSnRK1a-GFP co-expressed with beta subunit-HA in N. benthamiana leaves; IP with GFP-Nanoab-Agarose beads, 4 °C, 2 h; 50 mM Tris-HCl pH 7.5, 150 mM NaCl, 1% IGEPAL CA-630 extraction buffer; blots with anti-GFP and anti-HA; GFP co-expression as negative control.

The target of test [3] is T3, OsSnRK1a fused with the N-terminal (nLUC) half of luciferase (rice (Oryza sativa)) (UniProt Q852Q2).
T3 sequence: T1 sequence
Description: split reporter; split-luciferase complementation; nLUC and cLUC fusions transiently co-expressed in N. benthamiana leaves; 1 mM luciferin, luminescence imaged after three days.

These are yes or no findings as the source states them, for the method shown. Binding can be weak; no strength is given. Where a sequence is shown, tags or fusion partners need not be part of it. For part of these data: In cells and extracts the contact can be indirect.

For the substance OsSnRK1β3 (yeast two-hybrid fusion), the binding result in test [1] is listed as “binds”. For the substance OsSnRK1β1 (yeast two-hybrid fusion), the binding entry in test [1] was “binds”.

As for OsSnRK1β1-HA, the binding result in test [2] was “binds”.

Regarding “OsSnRK1β3 fused with the C-terminal (cLUC) half of luciferase”, the binding result in test [3] is given as “binds”. On to “OsSnRK1β1 fused with the C-terminal (cLUC) half of luciferase”, for which the binding entry in test [3] is reported as “binds”. As for OsSnRK1β3-HA, the binding result in test [2] was “binds”.

The values above are taken from article PMC10935424.
